Results published in publication PMC5437018.
Results are given in words; binding and its absence hold for the method and conditions named. Binding seen in cells or lysates may run through a third protein. A yes stands for co-enrichment or nearness to the bait. Other partners may have been found.

By UniProt entry, the sequences of proteins in these tests, tags left out.
UniProt Q6PR54: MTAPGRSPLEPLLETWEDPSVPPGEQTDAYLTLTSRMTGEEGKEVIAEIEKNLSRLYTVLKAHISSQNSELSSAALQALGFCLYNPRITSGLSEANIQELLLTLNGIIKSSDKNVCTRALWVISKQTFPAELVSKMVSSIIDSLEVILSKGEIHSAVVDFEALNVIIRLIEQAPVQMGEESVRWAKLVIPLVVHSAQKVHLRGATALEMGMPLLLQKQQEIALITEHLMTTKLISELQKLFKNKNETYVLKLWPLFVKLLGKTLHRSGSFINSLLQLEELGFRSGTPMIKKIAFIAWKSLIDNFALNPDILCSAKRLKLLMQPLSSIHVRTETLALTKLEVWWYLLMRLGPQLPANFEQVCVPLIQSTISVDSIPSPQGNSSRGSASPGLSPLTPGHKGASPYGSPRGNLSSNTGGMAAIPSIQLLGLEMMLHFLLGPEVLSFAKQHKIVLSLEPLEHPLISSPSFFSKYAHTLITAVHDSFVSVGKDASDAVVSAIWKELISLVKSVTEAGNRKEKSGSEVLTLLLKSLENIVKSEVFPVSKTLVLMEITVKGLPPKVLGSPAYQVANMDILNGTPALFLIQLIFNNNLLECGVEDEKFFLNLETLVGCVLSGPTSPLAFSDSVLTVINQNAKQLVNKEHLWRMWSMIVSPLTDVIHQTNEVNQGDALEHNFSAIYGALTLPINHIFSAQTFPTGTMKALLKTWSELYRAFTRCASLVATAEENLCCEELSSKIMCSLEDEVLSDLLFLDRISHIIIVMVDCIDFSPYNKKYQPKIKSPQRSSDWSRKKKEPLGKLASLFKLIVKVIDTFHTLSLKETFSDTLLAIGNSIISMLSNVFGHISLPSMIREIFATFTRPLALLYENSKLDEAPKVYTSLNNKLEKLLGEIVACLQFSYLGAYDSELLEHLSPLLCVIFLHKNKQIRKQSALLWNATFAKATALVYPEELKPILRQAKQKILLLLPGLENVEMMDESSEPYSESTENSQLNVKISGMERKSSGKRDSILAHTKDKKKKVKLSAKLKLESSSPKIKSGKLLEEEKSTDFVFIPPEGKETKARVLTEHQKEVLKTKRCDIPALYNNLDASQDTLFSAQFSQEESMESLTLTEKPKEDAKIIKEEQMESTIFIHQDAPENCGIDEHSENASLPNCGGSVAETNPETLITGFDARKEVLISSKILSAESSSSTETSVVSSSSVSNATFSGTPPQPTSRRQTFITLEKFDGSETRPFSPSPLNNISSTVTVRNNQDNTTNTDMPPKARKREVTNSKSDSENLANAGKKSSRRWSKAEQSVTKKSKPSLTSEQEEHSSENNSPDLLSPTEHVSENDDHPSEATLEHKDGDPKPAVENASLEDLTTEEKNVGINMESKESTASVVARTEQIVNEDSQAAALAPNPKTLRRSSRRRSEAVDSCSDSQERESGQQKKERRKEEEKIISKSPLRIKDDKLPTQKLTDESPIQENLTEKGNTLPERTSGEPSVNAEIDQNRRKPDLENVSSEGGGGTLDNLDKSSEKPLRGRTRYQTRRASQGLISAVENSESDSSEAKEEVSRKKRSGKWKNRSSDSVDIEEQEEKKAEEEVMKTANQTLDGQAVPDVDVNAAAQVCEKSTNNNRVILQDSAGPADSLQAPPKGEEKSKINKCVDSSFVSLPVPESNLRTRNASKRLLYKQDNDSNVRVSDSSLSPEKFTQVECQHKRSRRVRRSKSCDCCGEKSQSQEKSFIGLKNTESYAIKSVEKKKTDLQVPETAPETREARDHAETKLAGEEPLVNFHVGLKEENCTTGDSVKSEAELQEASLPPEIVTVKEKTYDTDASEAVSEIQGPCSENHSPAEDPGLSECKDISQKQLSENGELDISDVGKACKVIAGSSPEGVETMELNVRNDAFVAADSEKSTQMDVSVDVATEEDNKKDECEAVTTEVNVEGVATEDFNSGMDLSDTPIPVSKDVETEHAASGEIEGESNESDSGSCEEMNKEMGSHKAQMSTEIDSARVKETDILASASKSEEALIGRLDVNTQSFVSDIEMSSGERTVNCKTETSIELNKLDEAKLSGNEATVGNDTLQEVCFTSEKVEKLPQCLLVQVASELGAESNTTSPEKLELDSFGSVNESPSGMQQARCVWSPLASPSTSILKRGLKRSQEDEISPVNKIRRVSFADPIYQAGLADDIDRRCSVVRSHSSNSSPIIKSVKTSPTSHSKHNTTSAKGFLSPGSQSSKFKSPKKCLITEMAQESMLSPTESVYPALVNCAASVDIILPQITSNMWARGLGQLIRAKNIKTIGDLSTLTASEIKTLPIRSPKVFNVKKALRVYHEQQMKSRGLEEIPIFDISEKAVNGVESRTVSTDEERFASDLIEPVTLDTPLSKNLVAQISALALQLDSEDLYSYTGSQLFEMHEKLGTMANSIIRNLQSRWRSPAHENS

B1: Proteasome (Prosome, macropain) 26S subunit, non-ATPase, 13 (protein, UniProt Q9WVJ2 1-376)
chain: MKDVPAFLQQSQSSGPGQAAVWHRLEELYTKKLWHQLTLEVLDFVQDPCFAQGDGLIKLYENFISEFEHRVNPLSLVEIILHVVRQMTDPNVALTFLEKTREKVKSSDEAVILCKTAIGALKLNIGDLQATKETIEDVEEMLNNLPGVTSVHSRFYDLSSKYYQTIGNHASYYKDALRFLGCVDIKDLPVSEQQERAFTLGLAGLLGEGVFNFGELLMHPVLESLRDTDRQWLIDTLYAFNSGAVDRFQTLKCAWGQQPDLAANEAQLLRKIQLLCLMEMTFTRPANHRQLTFEEIAKSAKITVNKVELLVMKALSVGLVRGSIDEVDKRVHMTWVQPRVLDLQQIKGMKDRLELWCTDVKSMEMLVEHQAQDILT
B2: Lamin B1 (protein, UniProt P14733 1-588)
chain: MATATPVQQQRAGSRASAPATPLSPTRLSRLQEKEELRELNDRLAVYIDKVRSLETENSALQLQVTEREEVRGRELTGLKALYETELADARRALDDTARERAKLQIELGKFKAEHDQLLLNYAKKESDLSGAQIKLREYEAALNSKDAALATALGDKKSLEGDLEDLKDQIAQLEASLSAAKKQLADETLLKVDLENRCQSLTEDLEFRKNMYEEEINETRRKHETRLVEVDSGRQIEYEYKLAQALHEMREQHDAQVRLYKEELEQTYHAKLENARLSSEMNTSTVNSAREELMESRMRIESLSSQLSNLQKESRACLERIQELEDMLAKERDNSRRMLSDREREMAEIRDQMQQQLSDYEQLLDVKLALDMEISAYRKLLEGEEERLKLSPSPSSRVTVSRASSSRSVRTTRGKRKRVDVEESEASSSVSISHSASATGNVCIEEIDVDGKFIRLKNTSEQDQPMGGWEMIRKIGDTSVSYKYTSRYVLKAGQTVTVWAANAGVTASPPTDLIWKNQNSWGTGEDVKVILKNSQGEEVAQRSTVFKTTIPEEEEEEEEEPIGVAVEEERFHQQGAPRASNKSCAIM
B3: Lamin B2 (protein, UniProt P21619 1-596)
chain: MASLPPHAGPATPLSPTRLSRLQEKEELRELNDRLAHYIDRVRALELENDRLLLRISEKEEVTTREVSGIKTLYESELADARRVLDETARERARLQIEIGKVQAELEEARKSAKKREGELTVAQGRVKDLESLFHRSEAELATALSDKQGLETEVAELRAQLAKAEDGHAVAKKQLEKETLMRVDLENRCQSLQEELAFSKSVFEEEVRETRRRHERRLVEVDSSRQQEYDFKMAQALEDLRSQHDEQVRLYRVELEQTYQAKLDNAKLLSDQNDKAAHAAREELKEARMRVESLSYQLLGLQKQASAAENHIHELEEALAGERDKFRKMLDAKEQEMTEVRDAMQQQLAEYQELLDIKLALDMEISAYRKLLEGEEERLKLSPSPSSRITISRATSSSSSSSGVGMSVGQGRGKRRRLETEDTSGSPSRASRVSSGSRLAQQTVATGVVNIDEVDPEGRFVRLKNSSDKDQSLGNWRIKRQVLEGEDIAYKFTPKYVLRAGQTVTVWAAGAGATHSPPSTLVWKSQTNWGPGESFRTALVSADGEEVAVKAAKHSSVQGRENGEEEEEEEAEFGEEDLFHQQGDPRTTSRGCRLM

Each binder was assayed against Rif1^FLAG-HA2 (endogenous mouse Rif1 carrying a knock-in FLAG-HA2 tag) (mouse) (UniProt Q6PR54) (assay: affinity purification with mass spectrometry; anti-Flag M2 affinity gel IP of Rif1^FH from nuclear extracts of Rif1^FH/+ mouse ESCs (Benzonase, 0.2% Triton X-100), overnight 4 °C, washes with 150 mM NaCl and 0.1% Triton X-100, Flag-peptide elution; label-free quantitation against Rif1^+/+ ESCs).

binding, binds:
B1, B2, B3
